From article PMC11745445 (2024)
Results are given in words; binding and its absence hold for the method and conditions named. In cells and extracts the contact can be indirect. Some binding calls cover weakened binding; strength is not graded here. Sequences can lack the tags named with a protein.

Protein sequences, listed by entry. Tags and fused reporters are not part of them. Residues count along the entry.
UniProt Q62151, residues 23-402: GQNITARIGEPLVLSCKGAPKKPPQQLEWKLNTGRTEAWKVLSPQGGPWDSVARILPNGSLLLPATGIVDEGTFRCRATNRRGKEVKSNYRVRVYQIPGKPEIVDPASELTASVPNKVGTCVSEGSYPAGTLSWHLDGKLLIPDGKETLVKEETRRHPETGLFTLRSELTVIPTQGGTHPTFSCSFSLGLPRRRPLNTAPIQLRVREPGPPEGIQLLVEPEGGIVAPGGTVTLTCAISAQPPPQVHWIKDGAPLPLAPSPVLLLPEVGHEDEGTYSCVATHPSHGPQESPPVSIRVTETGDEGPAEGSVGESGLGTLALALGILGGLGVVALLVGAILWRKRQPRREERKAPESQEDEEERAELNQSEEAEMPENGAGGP

Key:
[1] = molecular target: RAGE (receptor for advanced glycation end products), endogenous in HT-22 cells (mouse (endogenous in HT-22)) (UniProt Q62151); assay: co-IP; lysate of MKK3-knockdown HT-22 cells re-expressing His-MKK3 wild type or K329A, after high glucose for 24 h; 200 ug protein, antibody or control IgG overnight at 4°C, protein A/G-agarose 2 h; IP and blot with His and RAGE antibodies in both directions
[2] = molecular target: RAGE (receptor for advanced glycation end products), endogenous in the hippocampus of db/db mice (mouse (endogenous in db/db mouse hippocampus)) (UniProt Q62151); assay: co-IP; hippocampal lysate of MKK3-knockdown db/db mice injected with LV-MKK3-His-Wt or -Mut; 200 ug protein, antibody or control IgG overnight at 4°C, protein A/G-agarose 2 h; blots with RAGE and His antibodies

Binder | binding [1] | binding [2]
LV-MKK3-His-WT (His-labeled wild-type MKK3) in HT-22 cells (protein, UniProt O09110 1-347) MESPAASPPASLPQTKGKSKRKKDLRISCVSKPPVSNPTPPRNLDSRTFITIGDRNFEVEADDLVTISELGRGAYGVVEKVRHAQSGTIMAVKRIRATVNTQEQKRLLMDLDINMRTVDCFYTVTFYGALFREGDVWICMELMDTSLDKFYRKVLEKNMKIPEDILGEIAVSIVRALEHLHSKLSVIHRDVKPSNVLINKEGHVKMCDFGISGYLVDSVAKTMDAGCKPYMAPERINPELNQKGYNVKSDVWSLGITMIEMAILRFPYESWGTPFQQLKQVVEEPSPQLPADQFSPEFVDFTSQCLRKNPAERMSYLELMEHPFFTLHKTKKTDIAAFVKEILGEDS | binds | –
LV-MKK3-His-Wt (His-labeled wild-type MKK3) in the hippocampus of db/db mice (protein, UniProt O09110 1-347) MESPAASPPASLPQTKGKSKRKKDLRISCVSKPPVSNPTPPRNLDSRTFITIGDRNFEVEADDLVTISELGRGAYGVVEKVRHAQSGTIMAVKRIRATVNTQEQKRLLMDLDINMRTVDCFYTVTFYGALFREGDVWICMELMDTSLDKFYRKVLEKNMKIPEDILGEIAVSIVRALEHLHSKLSVIHRDVKPSNVLINKEGHVKMCDFGISGYLVDSVAKTMDAGCKPYMAPERINPELNQKGYNVKSDVWSLGITMIEMAILRFPYESWGTPFQQLKQVVEEPSPQLPADQFSPEFVDFTSQCLRKNPAERMSYLELMEHPFFTLHKTKKTDIAAFVKEILGEDS | – | binds
